Experimental data reported in the supplement of paper PMC12889115.
Some of the results follow. Values are raw readings; no control value is given beside them.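 Primary screen: polymyxin B was added at a level permeabilizing Salmonella outer membranes while sparing inner membranes. DMSO wells, both with and without polymyxin B, established maximum growth. Plate-to-plate variation meant each plate was ranked on its own, and the lowest-OD600 compounds were selected as hits.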

System: Salmonella enterica serovar Typhimurium SL1344
Assay: bacterial growth OD600 after 18 h with compound and polymyxin B; higher = more bacterial growth (less inhibition)
Conditions: 50 µM, Mueller-Hinton broth

SMILES: O[C@@H]1CN(Cc2cccn2-c2ccccn2)CC[C@H]1N1CCN(c2ccccn2)CC1
- bacterial growth OD600 (polymyxin B 0.75 µg/mL): 0.838

SMILES: Cc1csc(SCC(=O)N2CCc3c(cnc(C)c3CNS(=O)(=O)c3cccs3)C2)n1
- bacterial growth OD600 (polymyxin B 0.75 µg/mL): 0.78

SMILES: COc1cccc(OCc2cc(C(=O)N(C)Cc3nc4cc(Cl)ccc4[nH]3)no2)c1
- bacterial growth OD600 (polymyxin B 1 µg/mL): 0.023

SMILES: O=C(CSc1ccccc1)NC1CCCN(c2ccc(C(F)(F)F)cn2)C1 (stereo not given)
- bacterial growth OD600 (polymyxin B 1 µg/mL): 0.839

SMILES: COc1ccccc1CNC(=O)c1c(OC)cc(=O)n2c1CCN(Cc1ccc3c(c1)CCO3)CC2
- bacterial growth OD600 (polymyxin B 0.75 µg/mL): 0.847

SMILES: CN(C)C1(C(=O)N[C@@H](Cc2ccccc2)C(N)=O)Cc2ccccc2C1
- bacterial growth OD600 (polymyxin B 0.75 µg/mL): 0.778

SMILES: C=CCS(=O)(=O)N1CCC(C2CCN(CC(C)C)CC2)C1 (stereo not given)
- bacterial growth OD600 (polymyxin B 0.75 µg/mL): 0.897

SMILES: COC(=O)c1ccccc1-c1cc(C)cc2c1OC(CNC(=O)C(C)c1n[nH]c(=O)c3ccccc13)C2 (stereo not given)
- bacterial growth OD600 (polymyxin B 0.75 µg/mL): 0.648

SMILES: O=C(NC1CC(=O)N(CCc2ccc(F)cc2)C1)C1CCCCC1 (stereo not given)
- bacterial growth OD600 (polymyxin B 1 µg/mL): 1.16

SMILES: Cc1cccc(-n2ncc3c2CCCC3NC(=O)Cc2c(C)noc2C)c1C (stereo not given)
- bacterial growth OD600 (polymyxin B 1 µg/mL): 0.707

SMILES: c1csc(CN2CCc3[nH]nc(-c4ccc5c(c4)OCO5)c3C2)n1
- bacterial growth OD600 (polymyxin B 0.75 µg/mL): 0.825

SMILES: COc1cc(CN2CCN(Cc3ccc4c(c3)OCCO4)CC2CCO)cc(OC)c1 (stereo not given)
- bacterial growth OD600 (polymyxin B 1 µg/mL): 0.732

SMILES: COc1ccc(CN2Cc3ccccc3OC(c3ccccc3F)C2)c(OC)c1OC (stereo not given)
- bacterial growth OD600 (polymyxin B 0.75 µg/mL): 0.342

SMILES: O=C(Nc1ccc(Oc2cccnc2)cc1)C1CCCCN1Cc1ccsc1 (stereo not given)
- bacterial growth OD600 (polymyxin B 1 µg/mL): 0.74

SMILES: COCCN1C(=O)CC(CC(=O)N(C)Cc2n[nH]c3c2CCCC3)(c2ccccc2OC)C1=O (stereo not given)
- bacterial growth OD600 (polymyxin B 0.75 µg/mL): 0.803

SMILES: COc1ccc(-n2ccnc2CN2CCCC(N3CCOCC3)C2)cc1 (stereo not given)
- bacterial growth OD600 (polymyxin B 1 µg/mL): 0.898

SMILES: COc1ccccc1NC(=O)Nc1ccnn1C1CCN(Cc2cnn(C(C)C)c2)CC1
- bacterial growth OD600 (polymyxin B 0.75 µg/mL): 0.887

SMILES: COCCCN1C(=O)CC(CC(=O)NCc2cnn(-c3ccccc3)n2)(c2ccccc2C)C1=O (stereo not given)
- bacterial growth OD600 (polymyxin B 0.75 µg/mL): 0.662

SMILES: COc1cc(CN2Cc3ccccc3OC(c3ccccc3OC)C2)ccc1O (stereo not given)
- bacterial growth OD600 (polymyxin B 0.75 µg/mL): 0.014

SMILES: Cc1ccc(C(=O)N2CCC(CCC(=O)N3CCC(Cc4ccccc4)CC3)CC2)cn1
- bacterial growth OD600 (polymyxin B 1 µg/mL): 0.883
